Reference: patent US20210008166A1 (SPECTRUM PHARMACEUTICALS, published 2021)
No constants are given. Whether binding was seen depends on the method and setting. Some results given as binding are weak or reduced against the parent protein; the word gives no strength.

Amino acid sequences for entries named in this document (tags omitted). A change or cut given only in a name is not applied to a line headed by its entry. Chains listed by the source or under a name are the forms on record and can include a tag or linker.
Pegfilgrastim (Neulasta) (P09919, form named): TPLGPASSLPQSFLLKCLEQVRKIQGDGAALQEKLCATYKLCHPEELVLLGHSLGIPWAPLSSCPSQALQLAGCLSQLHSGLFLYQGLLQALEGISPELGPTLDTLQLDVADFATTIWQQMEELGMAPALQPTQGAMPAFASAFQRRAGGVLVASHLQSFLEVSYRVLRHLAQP

Legend:
[1] = target: T1, Chinese hamster ovary (CHO) cell-derived soluble recombinant human G-CSF receptor (R&D Systems, 381-050/CF) (human) (UniProt Q99062); assay: SPR (discussion of the example)
T1 sequence (looked up): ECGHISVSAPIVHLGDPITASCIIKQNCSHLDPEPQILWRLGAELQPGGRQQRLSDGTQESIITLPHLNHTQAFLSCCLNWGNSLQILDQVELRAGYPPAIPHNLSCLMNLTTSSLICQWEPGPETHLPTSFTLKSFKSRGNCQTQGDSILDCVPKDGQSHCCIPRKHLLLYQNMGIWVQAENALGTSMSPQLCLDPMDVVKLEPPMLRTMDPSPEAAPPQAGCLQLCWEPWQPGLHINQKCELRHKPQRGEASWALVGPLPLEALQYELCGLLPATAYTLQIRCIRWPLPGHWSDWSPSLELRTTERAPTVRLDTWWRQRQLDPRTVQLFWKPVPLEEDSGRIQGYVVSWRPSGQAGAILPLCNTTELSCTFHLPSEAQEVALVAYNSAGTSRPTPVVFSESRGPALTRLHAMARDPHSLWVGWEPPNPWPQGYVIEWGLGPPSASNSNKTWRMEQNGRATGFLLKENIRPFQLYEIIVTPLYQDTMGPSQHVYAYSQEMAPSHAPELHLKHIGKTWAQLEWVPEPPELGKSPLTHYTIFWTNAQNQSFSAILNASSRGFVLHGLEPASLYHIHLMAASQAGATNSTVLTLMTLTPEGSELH

[2] = target: T1, Chinese hamster ovary (CHO) cell-derived soluble recombinant human G-CSF receptor (R&D Systems, 381-050/CF) (human); assay: SPR (summary; target not given, G-CSF receptor from context)
[3] = target: T1, Chinese hamster ovary (CHO) cell-derived soluble recombinant human G-CSF receptor (R&D Systems, 381-050/CF) (human); assay: SPR (discussion; target not given, G-CSF receptor from context)

Measured: binding

Pegfilgrastim (Neulasta) (from UniProt P09919 31-204) (ligand)
binds: all assays above
